Library screen at single concentrations

By UniProt entry, the sequences of proteins in these tests, tags left out. Residues count along the entry.
UniProt Q8IDJ8, 1-583: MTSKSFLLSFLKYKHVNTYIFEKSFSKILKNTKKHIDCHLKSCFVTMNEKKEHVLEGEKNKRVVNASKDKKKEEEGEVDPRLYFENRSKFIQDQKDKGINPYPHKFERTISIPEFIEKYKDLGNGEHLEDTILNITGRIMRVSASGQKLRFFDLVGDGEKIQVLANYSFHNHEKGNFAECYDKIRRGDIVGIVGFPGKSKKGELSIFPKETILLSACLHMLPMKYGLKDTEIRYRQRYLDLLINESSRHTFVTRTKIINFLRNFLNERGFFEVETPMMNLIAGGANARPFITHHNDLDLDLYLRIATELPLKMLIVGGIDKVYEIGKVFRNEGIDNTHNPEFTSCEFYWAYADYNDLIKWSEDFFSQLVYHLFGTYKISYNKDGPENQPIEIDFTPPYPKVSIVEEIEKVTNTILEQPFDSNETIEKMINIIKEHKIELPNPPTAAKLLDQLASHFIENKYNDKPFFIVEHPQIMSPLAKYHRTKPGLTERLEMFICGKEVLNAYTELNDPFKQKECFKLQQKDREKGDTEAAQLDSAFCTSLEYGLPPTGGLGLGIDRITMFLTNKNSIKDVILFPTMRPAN

The values are deposited in ChEMBL (CHEMBL3988442, “University of Dundee, Small-Polar-MMV Screening Library” (2021)).

Values are the deposited “Percent Effect”, in %.
The controls that fix the scale are not given in the record; negative values are as filed.
The compounds are a random part of those screened.

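Enzyme assay of the cytosolic lysyl-tRNA synthetase in 384-well plates, read by luminescence. Target: Lysine-tRNA ligase, Plasmodium falciparum 3D7 (UniProt Q8IDJ8). Concentration: 30 µM. Direction is inferred from only a few compounds that gave an IC50; most scored high, so higher reads as stronger inhibition. About 69,000 compounds were tested under these conditions; 0.071% (about 49) showed 50% or more at least once.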

{"smiles": "O=C(CCc1ncc(-c2ccc(F)cc2)o1)NCCN1CCOCC1", "percent effect": 1.026}
{"smiles": "O=C(NCC1CCCO1)c1cc(-c2ccc3c(c2)CCO3)n[nH]1", "stereo": "configuration not stated", "percent effect": -0.9698}
{"smiles": "CN1C(=O)[C@H]2CC[C@@H]1CN(Cc1cccc(OCc3ccccn3)c1)C2", "percent effect": 0.8448}
{"smiles": "CN1CCN(c2ccc(NCc3ccsc3)cn2)CC1", "percent effect": 1.894}
{"smiles": "CCOC(=O)c1sc(NC(=O)C(C)C)c(C#N)c1C", "percent effect": 4.152}
{"smiles": "CCc1ncc2c(n1)CN(C(=O)CNC(=O)c1ccccc1)C2", "percent effect": 1.859}
{"smiles": "COCCn1c(CN2CCCO2)cnc1S(=O)(=O)CC1CCCCC1", "percent effect": 2.13}
{"smiles": "CN(C)CC1CSCCCN1S(=O)(=O)Cc1ccc(C(F)(F)F)cc1", "stereo": "configuration not stated", "percent effect": 1.301}
{"smiles": "CC(C)c1nn(C)c(N(C)C)c1CNCCC(=O)NC1CCCC1", "percent effect": -2.202}
{"smiles": "COCc1noc(Cn2ccc3ncccc3c2=O)n1", "percent effect": 7.845}
{"smiles": "Cc1nc(NCC2CC2)nc2c1COCC21CCN(C(=O)C(C)(C)C)C1", "stereo": "configuration not stated", "percent effect": 0.7165}
{"smiles": "O=C([C@H]1CCCO1)N1CC[C@@H](O)[C@@H]1Cc1ccccc1", "percent effect": 2.589}
{"smiles": "CCc1nc(C)sc1CN1CC[C@@](O)(CCOC)[C@H](C)C1", "percent effect": -4.325}
{"smiles": "COc1cc2nc(NCc3ccc(C)nc3)nc(N)c2cc1OC", "percent effect": 5.71}
{"smiles": "O=C(c1c[nH]cn1)N1CCC(F)(F)C2(CCN(c3cnccn3)C2)C1", "stereo": "configuration not stated", "percent effect": 6.227}
{"smiles": "O=C(O)C(c1ccc2c(c1)OCO2)N1CCC(C(=O)N2CCCC2)CC1", "stereo": "configuration not stated", "percent effect": -0.5117}
{"smiles": "CCC(C)NS(=O)(=O)c1ccc(C(=O)N(C)C2(C#N)CCC2)cc1", "stereo": "configuration not stated", "percent effect": -3.562}
{"smiles": "CCCc1noc(CCC(=O)N2CCCC2Cn2cc(C)cn2)n1", "stereo": "configuration not stated", "percent effect": 0.2452}
{"smiles": "CS(=O)(=O)c1ccc(NC(=O)CSC(F)(F)F)cn1", "percent effect": 1.205}
{"smiles": "O=C(NCc1nnc2n1CCC2)c1cn(-c2ccccc2)nn1", "percent effect": -0.1057}
{"smiles": "O=S(=O)(NC[C@]12COC[C@H]1CN(CCc1ccccc1)C2)C1CC1", "percent effect": 0.251}
{"smiles": "Cc1ccc(S(=O)(=O)NCCc2cccnc2)cc1C", "percent effect": 8.92}
{"smiles": "CCn1nc(C)c(CN(C)S(=O)(=O)c2cnn(C)c2)c1C", "percent effect": 9.517}
{"smiles": "COCCOc1ccc(NC(=O)N(CC2CCOC2)C2CC2)cn1", "stereo": "configuration not stated", "percent effect": 1.799}
{"smiles": "CCn1ccnc1-c1nccn1-c1ccccc1CN1CCOCC1", "percent effect": 10.45}
{"smiles": "O=C1OCC(CO)N1Cc1cccc(Cl)c1F", "stereo": "configuration not stated", "percent effect": 1.333}
{"smiles": "CC(C)(C)C(=O)N1CCC(c2nc(O)cc(-c3ccncc3)n2)CC1", "percent effect": 4.964}
{"smiles": "COc1ccccc1-c1ccnc2nc(N3CCCCC3)[nH]c(=O)c12", "percent effect": 7.166}
{"smiles": "COc1ncc(C2(O)CCN(Cc3cccc(F)c3F)CC2)c(OC)n1", "percent effect": 2.76}
{"smiles": "COCCN1CCCN(C(=O)c2scnc2C)CC1", "percent effect": 6.361}
{"smiles": "COc1cc(Cl)ccc1CNC(=O)N1CCC(n2cncn2)CC1", "percent effect": 0.9643}
{"smiles": "CCc1n[nH]c(C(=O)NCCn2ccc(C)n2)c1C", "percent effect": 0.8696}
{"smiles": "Cc1cccc(NCCOc2cccc(C#N)c2)c1C(N)=O", "percent effect": -7.388}
{"smiles": "CC1=Nc2c(c(=O)[nH]n2C2CCOCC2)C(c2cccc(Br)c2)S1", "stereo": "configuration not stated", "percent effect": 4.56}
{"smiles": "CC(CCNC(=O)N(C)CC1CCOCC1)N1CCCCC1", "stereo": "configuration not stated", "percent effect": 4.868}
{"smiles": "Cc1cc(C)n(CC(C)CNC(=O)[C@@H](C)NC(=O)OC(C)(C)C)n1", "stereo": "some centres not stated", "percent effect": 2.356}
{"smiles": "CC(C)c1nc(C(=O)N2CCCC(N)CC2)cs1", "stereo": "configuration not stated", "percent effect": -2.393}
{"smiles": "Cc1cc(C)nc(N2CCC(c3c(C(N)=O)sc4ccccc34)C2)n1", "stereo": "configuration not stated", "percent effect": 2.017}
{"smiles": "Cc1nc(N2CCN(C(=O)c3cccs3)CC2)cc(-n2cccc2)n1", "percent effect": 6.383}
{"smiles": "COc1ccc(CN2CC[C@H]3[C@H]2CCN3C(=O)c2cnn(C)c2)cc1", "percent effect": -2.666}
{"smiles": "Nc1cc(CCCNC(=O)NC2CCCC2)nn1-c1ccccc1", "percent effect": 2.709}
{"smiles": "O=C1CCCN1CCC1CCN(C2CCC3(CCNCC3)CC2)CC1", "percent effect": 4}
{"smiles": "C1CCC(NCC2(N3CCOCC3)CCSC2)C1", "stereo": "configuration not stated", "percent effect": -3.509}
{"smiles": "Nc1nc2c(c(NCc3ccncc3)n1)CCCC2", "percent effect": 1.642}
{"smiles": "CCC1(CC)Cc2ccccc2-c2nc(NCCCO)[nH]c(=O)c21", "percent effect": 4.148}
{"smiles": "CNC(=O)C1(c2cnccn2)CCCN1C(=O)c1ccccc1OC", "stereo": "configuration not stated", "percent effect": 2.556}
{"smiles": "CC(C)(C)c1ccc(-c2n[nH]c3c2CN(CC2CCOC2)CC3)cc1", "stereo": "configuration not stated", "percent effect": 0.0243}
{"smiles": "CCN(CC)C1CCN(C(=O)NCc2cccc(-n3cccn3)c2)C1", "stereo": "configuration not stated", "percent effect": 2.951}
{"smiles": "COCCN(CCC#N)S(=O)(=O)c1cc(F)ccc1F", "percent effect": 2.062}
{"smiles": "Cc1occc1C(=O)N1CC(C(=O)N2CCOCC2)C2(CCOCC2)C1", "stereo": "configuration not stated", "percent effect": 1.706}
{"smiles": "Cc1nc(C)c(C(=O)Nc2cccc(CN3CCC(CO)CC3)c2)o1", "percent effect": 5.656}
{"smiles": "CCc1cc(C(=O)NCC2CCN(Cc3cccc(C#N)c3)C2)on1", "stereo": "configuration not stated", "percent effect": 0.789}
{"smiles": "CC(C)(C)NC(=O)COc1ccc(CNCc2ccccn2)cc1", "percent effect": -1.6}
{"smiles": "Cc1cccc(CN2Cc3ccnn3CC(COCC3CC3)C2)n1", "stereo": "configuration not stated", "percent effect": 6.496}
{"smiles": "Cc1ccc(S(=O)(=O)N(CCO)C2CC2)cc1N(C)C", "percent effect": -1.342}
{"smiles": "O=C1C[C@@H]2CCN(Cc3ccccc3)C[C@@H]2CCN1C1CCCCC1", "percent effect": -4.611}
{"smiles": "Cc1ccc(C2(O)CCN(C(=O)c3sccc3S(N)(=O)=O)CC2)nc1", "percent effect": 2.413}
{"smiles": "CC(C)(CNCc1ccc(OCc2cscn2)cc1)C(N)=O", "percent effect": 3.693}
{"smiles": "CCC(NC(=O)C1CCN(S(=O)(=O)N(C)C)CC1)c1ccc(C)c(C)c1", "stereo": "configuration not stated", "percent effect": 2.845}

Once more, the final 4:

Result for O=C1C[C@@H]2CCN(Cc3ccccc3)C[C@@H]2CCN1C1CCCCC1 was -4.611%.
Result for Cc1ccc(C2(O)CCN(C(=O)c3sccc3S(N)(=O)=O)CC2)nc1 was 2.413%.
Result for CC(C)(CNCc1ccc(OCc2cscn2)cc1)C(N)=O was 3.693%.
Result for CCC(NC(=O)C1CCN(S(=O)(=O)N(C)C)CC1)c1ccc(C)c(C)c1 (configuration not stated) was 2.845%.